Source: the supplement of paper PMC10331698
± gives the standard deviation of the averaged measurements. Most entries show no effect beyond the scatter of the controls.

Experiments:
Assay in all cases: level (log10 ratio to DMSO vehicle control); higher = higher biomarker level / cell amount than vehicle control
[1] = compound: C=C(C)C(=O)OCC(F)(F)C(F)(F)C(F)(F)C(F)(F)C(F)(F)C(F)(F)C(F)(F)F; conditions: in DMSO
Method: (§1)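 BioMAP Diversity Plus panel of 12 human primary cell co-culture systems (3C, 4H, LPS, SAg, BT, BF4T, BE3C, CASM3C, HDF3CGF, KF3CT, MyoF, Mphg). Compounds were added 1 h before stimulation and left for 24 h (MyoF 48 h; BT 72 h for soluble read-outs or 6 d for IgG). Biomarkers were read by ELISA, cytotoxicity by SRB, PBMC viability and proliferation by Alamar Blue. Each well value was divided by the mean of 8 DMSO control wells on the same plate and log10 transformed; duplicate blinded samples were tested at 4 concentrations.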

[2] = compound: C=CC(=O)OCC(F)(F)C(F)(F)C(F)(F)C(F)(F)C(F)(F)C(F)(F)C(F)(F)F [1H,1H-Perfluorooctyl acrylate]; conditions: 2200 nM; in DMSO
Method: as §1

[3] = compound: C=CC(F)(F)C(F)(F)C(F)(F)C(F)(F)C(F)(F)C(F)(F)C(F)(F)C(F)(F)C=C [1,8-Divinylperfluorooctane]; conditions: in DMSO
Method: as §1

[4] = compound: COC(=O)C(F)(F)C(F)(F)OC(F)(C(F)(F)F)C(F)(F)OC(F)=C(F)F [Methyl perfluoro(3-(1-ethenyloxypropan-2-yloxy)propanoate)]; conditions: in DMSO
Method: as §1

[5] = compound: CO[Si](C)(CCC(F)(F)C(F)(F)C(F)(F)C(F)(F)C(F)(F)C(F)(F)F)OC [Dimethoxymethyl((perfluorohexyl)ethyl)silane]; conditions: in DMSO
Method: as §1

[6] = compound: FC(F)(F)C(F)(F)C(F)(F)CC1CO1 [1H,1H-Heptafluorobutyl epoxide]; conditions: 2200 nM; in DMSO
Method: as §1

Heptafluorobutyl iodide = compound: FC(F)(F)C(F)(F)C(F)(F)CI [Heptafluorobutyl iodide]; conditions: 2200 nM; in DMSO
Method: as §1

[7] = compound: NC(=O)C(F)(F)C(F)(F)C(F)(F)C(F)F; conditions: in DMSO
Method: as §1

Pentafluoropropionamide = compound: NC(=O)C(F)(F)C(F)(F)F [Pentafluoropropionamide]; conditions: 2200 nM; in DMSO
Method: as §1

[8] = compound: NS(=O)(=O)C(F)(F)C(F)(F)C(F)(F)C(F)(F)C(F)(F)C(F)(F)C(F)(F)C(F)(F)F [Perfluorooctanesulfonamide]; conditions: in DMSO
Method: as §1

[9] = compound: O=C(O)C(F)(F)C(F)(F)C(F)F [4H-Perfluorobutanoic acid]; conditions: in DMSO
Method: as §1

[10] = compound: O=P(O)(O)CCC(F)(F)C(F)(F)C(F)(F)C(F)(F)C(F)(F)C(F)(F)F [2-(Perfluorohexyl)ethylphosphonic acid]; conditions: 2200 nM; in DMSO
Method: as §1

[11] = compound: O=S(=O)(F)C(F)(F)C(F)(F)C(F)(F)C(F)(F)C(F)(F)C(F)(F)C(F)(F)C(F)(F)F [Perfluorooctanesulfonyl fluoride]; conditions: 2200 nM; in DMSO
Method: as §1

[12] = compound: O=S(=O)(O)C(F)(F)C(F)(F)C(F)(F)C(F)(F)C(F)(F)C(F)(F)C(F)(F)C(F)(F)F [Perfluorooctanesulfonic acid]; conditions: 2200 nM; in DMSO
Method: as §1

[13] = compound: O=S(=O)(O)C(F)(F)C(F)(F)C(F)(F)C(F)(F)C(F)(F)C(F)(F)C(F)(F)C(F)(F)F [Potassium perfluorooctanesulfonate]; conditions: 2200 nM; in DMSO
Method: as §1

[14] = compound: O=S(=O)(OCC(F)(F)F)C(F)(F)C(F)(F)C(F)(F)C(F)(F)F [2,2,2-Trifluoroethyl perfluorobutanesulfonate]; conditions: 2200 nM; in DMSO
Method: as §1

[15] = compound: OCC(F)(F)C(F)(F)C(F)(F)C(F)(F)C(F)(F)C(F)F [1H,1H,7H-Dodecafluoro-1-heptanol]; conditions: 2200 nM; in DMSO
Method: as §1

[16] = compound: OCCCCC(F)(F)C(F)(F)C(F)(F)C(F)(F)F [4:4 Fluorotelomer alcohol]; conditions: 2200 nM; in DMSO
Method: as §1

| Test System | level (log10) ([1]; 740 nM) | level (log10) ([1]; 2200 nM) | level (log10) [2] | level (log10) ([3]; 740 nM) | level (log10) ([3]; 2200 nM) | level (log10) ([4]; 740 nM) | level (log10) ([4]; 2200 nM) | level (log10) ([5]; 740 nM) | level (log10) ([5]; 2200 nM) | level (log10) [6] | level (log10) (Heptafluorobutyl iodide) | level (log10) ([7]; 2200 nM) | level (log10) ([7]; 6700 nM) | level (log10) ([7]; 20000 nM) | level (log10) ([7]; 60000 nM) | level (log10) (Pentafluoropropionamide) | level (log10) ([8]; 2200 nM) | level (log10) ([8]; 6700 nM) | level (log10) ([8]; 20000 nM) | level (log10) ([9]; 2200 nM) | level (log10) ([9]; 6700 nM) | level (log10) ([9]; 20000 nM) | level (log10) ([9]; 60000 nM) | level (log10) [10] | level (log10) [11] | level (log10) [12] | level (log10) [13] | level (log10) [14] | level (log10) [15] | level (log10) [16] |
| --- | --- | --- | --- | --- | --- | --- | --- | --- | --- | --- | --- | --- | --- | --- | --- | --- | --- | --- | --- | --- | --- | --- | --- | --- | --- | --- | --- | --- | --- | --- |
| LPS:sTNF-alpha | -0.128 ± 0.22 | -0.044 ± 0.15 | -0.0005 ± 0.0078 | -0.0305 ± 0.032 | 0.0495 ± 0.028 | 0.0115 ± 0.016 | -0.012 ± 0.0071 | -0.005 ± 0.0028 | -0.004 ± 0.0085 | -0.004 ± 0.016 | -0.013 ± 0.02 | -0.0135 ± 0.0035 | -0.0095 ± 0.0035 | -0.0095 ± 0.022 | -0.003 ± 0.031 | -0.0135 ± 0.057 | 0.002 ± 0.0071 | 0.007 ± 0.0042 | -0.0245 ± 0.00071 | 0.001 ± 0.04 | 0.0095 ± 0.043 | 0.0095 ± 0.023 | 0.004 ± 0.031 | -0.003 ± 0.02 | -0.014 ± 0.016 | 0.039 ± 0.088 | 0.045 ± 0.017 | -0.014 ± 0.024 | -0.0135 ± 0.00071 | 0.028 ± 0.1 |
| BF4T:CXCL8/IL-8 | 0.0225 ± 0.012 | -0.0005 ± 0.005 | 0.0435 ± 0.023 | 0.0215 ± 0.037 | 0.0085 ± 0.029 | 0.0315 ± 0.059 | 0.021 ± 0.047 | 0.018 ± 0.037 | -0.006 ± 0.04 | 0.0235 ± 0.013 | 0.0635 ± 0.11 | 0.0155 ± 0.028 | 0 ± 0.0071 | -0.0105 ± 0.005 | -0.009 ± 0.0071 | 0.0285 ± 0.03 | -0.012 ± 0.038 | 0.003 ± 0.0057 | 0.0405 ± 0.013 | 0.04 ± 0.03 | 0.0385 ± 0.0078 | 0.046 ± 0.024 | 0.0445 ± 0.04 | -0.004 ± 0.051 | 0.014 ± 0.035 | 0.007 ± 0.025 | 0.0105 ± 0.076 | 0.0155 ± 0.019 | 0.0105 ± 0.08 | 0.0025 ± 0.047 |
| BF4T:MMP-9 | 0.0285 ± 0.037 | -0.016 ± 0.0085 | -0.012 ± 0.016 | 0.0135 ± 0.08 | 0.002 ± 0.075 | -0.007 ± 0.025 | -0.03 ± 0.0071 | 0.0065 ± 0.057 | 0.0005 ± 0.026 | -0.011 ± 0.0099 | 0.013 ± 0.054 | 0.0135 ± 0.063 | 0.013 ± 0.051 | -0.006 ± 0.055 | -0.001 ± 0.047 | 0.0175 ± 0.06 | -0.0015 ± 0.043 | -0.006 ± 0.025 | -0.113 ± 0.018 | -0.0285 ± 0.026 | -0.018 ± 0.028 | -0.0245 ± 0.036 | -0.008 ± 0.038 | -0.014 ± 0.034 | 0.0005 ± 0.033 | 0.0095 ± 0.029 | 0.026 ± 0.037 | -0.0105 ± 0.0092 | 0.008 ± 0.024 | 0.0195 ± 0.028 |
| KF3CT:CD54/ICAM-1 | -0.0005 ± 0.013 | -0.016 ± 0.0099 | 0 ± 0.0028 | -0.0125 ± 0.05 | -0.0155 ± 0.012 | -0.005 ± 0.011 | -0.009 ± 0.0042 | -0.022 ± 0.016 | 0.021 ± 0.0071 | -0.0005 ± 0.0021 | -0.015 | 0 ± 0.017 | -0.0075 ± 0.011 | -0.0255 ± 0.005 | -0.008 ± 0.0014 | -0.011 ± 0.037 | -0.0135 ± 0.013 | 0.0155 ± 0.023 | -0.0235 ± 0.028 | -0.0055 ± 0.0035 | 0.005 ± 0.0028 | -0.0115 ± 0.0035 | -0.006 ± 0.011 | -0.006 | 0.006 ± 0.014 | 0.002 ± 0.021 | -0.0135 ± 0.0021 | 0.037 ± 0.0042 | 0.0095 ± 0.028 | 0.0095 ± 0.005 |
| SAg:CCL2/MCP-1 | 0.0075 ± 0.03 | 0.012 ± 0.0028 | -0.0075 ± 0.026 | -0.001 ± 0.03 | 0.0035 ± 0.011 | 0.011 ± 0.024 | 0.013 ± 0.021 | 0.03 ± 0.0085 | 0.006 ± 0.02 | 0.0105 ± 0.04 | 0.0025 ± 0.00071 | 0.005 ± 0.052 | -0.0145 ± 0.026 | -0.024 ± 0.013 | 0.0115 ± 0.03 | -0.0005 ± 0.00071 | 0.022 ± 0.048 | -0.0125 ± 0.021 | 0.0075 ± 0.015 | -0.012 ± 0.03 | -0.011 ± 0.038 | -0.0085 ± 0.04 | -0.0065 ± 0.081 | 0.0185 ± 0.0035 | 0.0065 ± 0.023 | -0.0185 ± 0.029 | 0.0115 ± 0.033 | 0.016 ± 0.044 | 0.019 ± 0.021 | -0.004 ± 0.018 |
| BT:sTNF-alpha | 0.0645 ± 0.17 | -0.069 ± 0.13 | -0.0315 ± 0.037 | 0.0265 ± 0.21 | -0.027 ± 0.079 | -0.009 ± 0.025 | 0.0775 ± 0.044 | 0.048 ± 0.14 | 0.085 ± 0.064 | -0.104 ± 0.081 | 0.113 ± 0.054 | 0.038 ± 0.082 | 0.0475 ± 0.19 | -0.0695 ± 0.0035 | -0.0215 ± 0.047 | 0.002 ± 0.17 | -0.0485 ± 0.03 | -0.045 ± 0.13 | -0.11 ± 0.15 | -0.0395 ± 0.067 | -0.0585 ± 0.022 | -0.055 ± 0.0071 | -0.048 ± 0.13 | 0.096 ± 0.059 | 0.0085 ± 0.028 | 0.0395 ± 0.22 | 0.072 ± 0.16 | 0.119 ± 0.11 | -0.0435 ± 0.27 | -0.0025 ± 0.16 |
| BT:sIL-17F | 0.037 ± 0.016 | 0.019 ± 0.059 | -0.055 ± 0.0085 | 0.036 ± 0.034 | 0.0275 ± 0.046 | -0.0165 ± 0.086 | 0.088 ± 0.17 | 0.0355 ± 0.13 | -0.079 ± 0.088 | -0.008 ± 0.017 | -0.0605 ± 0.11 | -0.0335 ± 0.069 | 0.0335 ± 0.019 | -0.0275 ± 0.015 | -0.018 ± 0.023 | -0.0285 ± 0.015 | -0.01 ± 0.024 | -0.0365 ± 0.084 | -0.0785 ± 0.11 | -0.0485 ± 0.31 | -0.0445 ± 0.005 | -0.067 ± 0.17 | -0.0165 ± 0.036 | -0.008 ± 0.069 | 0.0015 ± 0.077 | -0.0175 ± 0.032 | -0.034 ± 0.034 | -0.0135 ± 0.049 | -0.0905 ± 0.021 | -0.069 ± 0.0085 |
